Measured values from patent US20150017154A1.
Results are given in words; binding and its absence hold for the method and conditions named. Some binding calls cover weakened binding; strength is not graded here.

Target: canine NGF (canine)
Assay: ELISA, CHO supernatant on coated NGF, anti-canine IgG-HRP

binding: binds
B1: caninised anti-NGF antibody comprising the caN-HCB heavy chain and the caN-kLC light chain (antibody)
heavy: EVQLVESGGDLVNPGGTLTLSCVVSGFSLTNNNVNWVRQALGRGLEWVGGVWAGGATDYNSALKSRLTITRDTSKSTVFLKMHSLQSEDTATYYCARDGGYSSSTLYAMDAWGQGTLVTVSSASTTAPSVFPLAPSCGSTSGSTVALACLVSGYFPEPVTVSWNSGSLTSGVHTFPSVLQSSGLYSLSSMVTVPSSRWPSETFTCNVAHPASKTKVDKPVPKRENGRVPRPPDCPKCPAPEMLGGPSVFIFPPKPKDTLLIARTPEVTCVVVDLDPEDPEVQISWFVDGKQMQTAKTQPREEQFNGTYRVVSVLPIGHQDWLKGKQFTCKVNNKALPSPIERTISKARGQAHQPSVYVLPPSREELSKNTVSLTCLIKDFYPPDIDVEWQSNGQQEPESKYRTTPPQLDEDGSYFLYSKLSVDKSRWQRGDTFICAVMHEALHNHYTQESLSHSPGK
light: DIQMTQSPASLSLSQEEKVTITCRASEDIYNALAWYQQKPGQAPKLLIYNTDTLHTGVPSRFSGSGSGTEYSLTINSLESEDVAVYFCQHYFHYPRTFGAGTKVELKRNDAQPAVYLFQPSPDQLHTGSASVVCLLNSFYPKDINVKWKVDGVIQDTGIQESVTEQDKDSTYSLSSTLTMSSTEYLSHELYSCEITHKSLPSTLIKSFQRSECQRVD
